Among all 320,000 compounds or so, about 2,100 (0.66%) were called active. Inconclusive means that the source gave no clear call. Such entries were picked first, then a sample of the others. The call rests on the fitted dose curve; in most records, active means well fitted inhibition curve with a large enough effect in the signal ratio, with a control signal flat (not every such curve was filed as active); inconclusive means small, poorly fitted or top-dose-only effect, or effect the other way, or a change in a side signal; inactive means flat fitted curve, though single readings scatter; the % refers to the signal ratio. Where the call is inconclusive, the potency comes from a doubtful curve fit.
test: qHTS Assay for Lipid Storage Modulators in Drosophila S3 Cells; conditions: BODIPY lipid droplet fluorescence, 18-24 h, cells fed with added oleic acid; lipid storage change, negative = inhibition: at 46.1 µM (top of the series) unless noted
Outline: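 Drosophila S3 cells got compounds at several concentrations plus oleic acid (400 uM solution). Laser-scanning cytometry with 488 nm excitation read lipid droplets at 500-530 nm and cells at 575-640 nm. Percent activity was relative to 20 uM Triacsin C.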
On the % scale 0 is the no-effect control and ±100 the full control effect; potency means the concentration at half of the fitted maximal effect.

Q: For COc1ccc(CCNC(=O)COC(=O)COc2ccc(Cl)cc2)cc1OC, which lipid storage change, negative = inhibition is on record?
A: inconclusive: 30.9%

Q: With COc1ccc(N2C(=O)CC(NNC(=O)c3cc(C)oc3C)C2=O)cc1 (stereo not given) as the molecule, how does the Potency read?
A: inconclusive: 5.8 µM [rising, single point]

Q: For Cc1nnc(NC(=O)c2ccc(-c3ccc([N+](=O)[O-])cc3)o2)s1, which lipid storage change, negative = inhibition is on record?
A: inconclusive: 21.3%

Q: With CCOc1ccc(NC(=O)COc2ccc(C(=O)NC(C)c3ccc(S(N)(=O)=O)cc3)cc2OC)cc1 (stereo not given) as the molecule, how does the lipid storage change, negative = inhibition read?
A: inconclusive: 22.1%

Q: Which lipid storage change, negative = inhibition does the source give for CCOC(=O)C(NC(=O)c1ccc(OC)cc1)(OCC1(CC)COC1)C(F)(F)F (stereo not given) here?
A: inconclusive: -11.1%

Q: For CCOc1ccc(NC(=O)CN2CCN(C(=O)c3ccco3)CC2)cc1S(=O)(=O)N1CCCC1, which lipid storage change, negative = inhibition is on record?
A: inconclusive: 19.6%

Q: With NNC(=O)[C@@H]1C[C@@H]1c1ccccc1 as the molecule, how does the lipid storage change, negative = inhibition read?
A: inconclusive: -20.9%

Q: For CCN(CC(=O)Nc1ccc(OC)cc1)C(=O)c1ccc2c(c1)NC(=O)CS2, which lipid storage change, negative = inhibition is on record?
A: inconclusive

Q: For Cn1c(=O)cc(C(=O)N/N=C/c2ccc(F)cc2)[nH]c1=O, which Potency is on record?
A: inconclusive: 1.3 µM [rising, partial curve, poor fit]

Q: With CSCCC(NC(=O)c1ccc([N+](=O)[O-])cc1Cl)C(=O)OCC(=O)NCCCc1ccccc1 (stereo not given) as the molecule, how does the Potency read?
A: inconclusive: 0.731 µM [activator, partial curve, poor fit]

Q: With Cc1ccc(C)c(N(C(=O)c2snc(C(N)=O)c2N)C(C(=O)NCC2CCCO2)c2cccs2)c1 (stereo not given) as the molecule, how does the Potency read?
A: inconclusive: 0.116 µM [activator, full curve, poor fit]

Q: Which Potency does the source give for COc1cc(C(=O)OCCNC(=O)c2ccccc2)cc(OC)c1OC here?
A: inconclusive: 16.4 µM [falling, partial curve, poor fit]

Q: For CN1CCN(S(=O)(=O)c2ccc(NC(=O)c3ccc(Br)s3)cc2)CC1, which lipid storage change, negative = inhibition is on record?
A: inactive

Q: Which lipid storage change, negative = inhibition does the source give for O=C(CSc1nc(O)cc(=O)n1-c1ccc(Cl)c(Cl)c1)Nc1ccc(Cl)cc1Cl here?
A: inconclusive: 41.2%

Q: Which lipid storage change, negative = inhibition does the source give for O=C(O)COCC(=O)Nc1ccc2c(c1)CCC2 here?
A: inconclusive: 0.378%

Q: With CC(=O)Nc1cccc(NC(=O)COC(=O)CO/N=C(\C)c2ccc3c(c2)OCO3)c1 as the molecule, how does the lipid storage change, negative = inhibition read?
A: inconclusive: 10.1%

Q: With CN=Cc1nc(-c2ccccc2)oc1O as the molecule, how does the lipid storage change, negative = inhibition read?
A: inactive

Q: With CCCCN1C(=O)C(CC(=O)NCC)SC1=Nc1ccccc1 (stereo not given) as the molecule, how does the lipid storage change, negative = inhibition read?
A: inconclusive: -0.591%

Q: For CCOC(=O)[C@H]1[C@H]2COc3ccc(OC)cc3[C@@H]2N2C(=O)c3cc(F)c(F)cc3NC(=O)[C@@]12C, which lipid storage change, negative = inhibition is on record?
A: inactive

Q: Which lipid storage change, negative = inhibition does the source give for COCCNC(=O)c1onc(CSc2ccccc2)c1C(=O)NCCOC here?
A: inconclusive: 33.6%

Q: With COC(=O)c1ccc(N=C2S/C(=C\c3cc(C)n(-c4cccnc4)c3C)C(=O)N2C)cc1 as the molecule, how does the lipid storage change, negative = inhibition read?
A: inconclusive: -26.4%

Q: Which lipid storage change, negative = inhibition does the source give for O=C(CCC1CCCCC1)NCc1ccncc1 here?
A: inconclusive: 23.2%

Q: For CCN(CC(=O)NCc1ccc(F)cc1)C(=O)c1cc2ccccc2o1, which Potency is on record?
A: inconclusive: 29.1 µM [activator, partial curve, poor fit]

Q: With Cc1nc(NCCc2ccccc2)sc1C(=O)N(C)C as the molecule, how does the Potency read?
A: inconclusive: 23.1 µM [activator, single point]

Q: With O=C(CSc1ncnc2c1cnn2-c1ccc(F)cc1)NCc1ccc2c(c1)OCO2 as the molecule, how does the Potency read?
A: inconclusive: 29.1 µM [falling, single point]

Q: Which lipid storage change, negative = inhibition does the source give for CN(Cc1ccc(F)cc1)Cc1nc(CCc2ccccc2)no1 here?
A: inconclusive: 37.2%

Q: For Cc1cc(C(=O)O)c2ccccc2n1, which Potency is on record?
A: inconclusive: 6.51 µM [falling, single point]

Q: With O=c1cc(O)nc(-c2ccc(Cl)cc2)s1 as the molecule, how does the Potency read?
A: inconclusive: 6.51 µM [falling, single point]

Q: Which lipid storage change, negative = inhibition does the source give for CC(OC(=O)c1cc(=O)[nH]c2ccccc12)c1ccccc1 (stereo not given) here?
A: inconclusive: 104%

Q: With CCN(CC)C(=O)C1CCN(S(=O)(=O)c2c(C)noc2/C=C/c2cccc(C)c2)CC1 as the molecule, how does the Potency read?
A: inconclusive: 0.731 µM [falling, single point]

Q: With CCOC(=O)c1sc2nc(NC(=O)COc3ccccc3)sc2c1C as the molecule, how does the lipid storage change, negative = inhibition read?
A: inconclusive: -0.792%

Q: Which lipid storage change, negative = inhibition does the source give for CCOc1ccccc1NC(=O)C(OC(=O)c1ccc(O)cc1)c1ccccc1 (stereo not given) here?
A: inconclusive: -36.6%

Q: Which lipid storage change, negative = inhibition does the source give for Cc1ccc(S(=O)(=O)NCC(=O)NC2CC2)cc1 here?
A: inconclusive: -31.2%

Q: With CCCSC(=S)NC1CCS(=O)(=O)C1 (stereo not given) as the molecule, how does the lipid storage change, negative = inhibition read?
A: inconclusive: -26.8%

Q: For CCOc1ccc(NC(=O)NNC(=O)C2CCC(C(C)(C)C)CC2)cc1 (stereo not given), which lipid storage change, negative = inhibition is on record?
A: inconclusive: 18.1%

Q: For Cc1nnc(-c2ccccc2)nc1N(C)C, which lipid storage change, negative = inhibition is on record?
A: inconclusive: 22.4%

Q: With CCOc1ccc(-c2ccc(SCC(=O)NC3CCCCC3)nn2)cc1 as the molecule, how does the lipid storage change, negative = inhibition read?
A: inconclusive: 23.4%

Q: For O=C(CN1CCOCC1)Nc1ncc(Cc2cccc3ccccc23)s1, which lipid storage change, negative = inhibition is on record?
A: inconclusive: 37.8%

Q: Which Potency does the source give for COc1cc(C(=O)NNC(=O)c2ccc(F)cc2)ccc1OCC(=O)N1CCOCC1 here?
A: inconclusive: 25.9 µM [activator, single point]

Q: Which lipid storage change, negative = inhibition does the source give for Cc1ccc(/C(=C\CN2CCCC2)c2ccccn2)cc1 here?
A: inconclusive: 5.06%

Q: With C[C@H](NC(=O)c1ccccc1F)C(=O)N1CCC2(CC1)NCCc1[nH]cnc12 as the molecule, how does the lipid storage change, negative = inhibition read?
A: inconclusive: 18.7%

Q: For COc1cc(/C=C/C(=O)NC(C)C2CC3CCC2C3)cc(OC)c1OC (stereo not given), which Potency is on record?
A: active: 2.91 µM

Q: With O=C(c1cc(-c2cccc(O)c2)on1)N1CCCC1 as the molecule, how does the Potency read?
A: inconclusive: 1.16 µM [activator, single point]

Q: With COc1cc(C)ccc1OCCOc1ccccc1Cl as the molecule, how does the lipid storage change, negative = inhibition read?
A: inconclusive: 2.2%

Q: Which lipid storage change, negative = inhibition does the source give for COc1ccc(C(=O)N2CCN(c3ccc(C)cc3C)CC2)cc1OC here?
A: inconclusive: 26.4%

Q: With Cc1ccc(C(=O)Nc2sc(C)c(C)c2C(=O)c2ccccc2)cc1 as the molecule, how does the Potency read?
A: inconclusive: 7.31 µM [activator, partial curve, poor fit]

Q: For Cc1cc(C)cc(NS(=O)(=O)c2ccc3[nH]cc(C(=O)N4CCc5ccccc54)c(=O)c3c2)c1, which lipid storage change, negative = inhibition is on record?
A: inconclusive: 24%

Q: Which lipid storage change, negative = inhibition does the source give for Fc1cccc(CO/N=C/c2c(-c3ccccc3)nc3ccc(Cl)cn23)c1 here?
A: inconclusive: -98.1%

Q: For O=C(NCc1ccco1)C1(c2ccccc2)CCCC1, which Potency is on record?
A: inconclusive: 1.16 µM [falling, single point]

Q: Which lipid storage change, negative = inhibition does the source give for COc1cc(C(=O)NC(=S)Nc2ccccc2[N+](=O)[O-])cc(OC)c1OC here?
A: inconclusive: -46.6% [at 0.00295 µM]

Q: For O=C(CC(SCCO)c1ccc(F)cc1)c1ccco1 (stereo not given), which lipid storage change, negative = inhibition is on record?
A: inconclusive: -19.9%

Q: Which lipid storage change, negative = inhibition does the source give for CCCCn1c(-c2csc(CC)c2)n[nH]c1=S here?
A: inconclusive: 13.9%

Q: With COc1ccc(CCC(C)Nc2ccccc2F)cc1 (stereo not given) as the molecule, how does the Potency read?
A: inconclusive: 5.8 µM [rising, full curve, poor fit]

Q: For COC(=O)C1CCN(C(=O)c2cc(OC)c(OC)c(OC)c2)CC1, which Potency is on record?
A: inconclusive: 20.6 µM [activator, single point]

Q: With COc1cc(Br)cc2cc(C(=O)N3CCCCC3C)c(=O)oc12 (stereo not given) as the molecule, how does the Potency read?
A: inconclusive: 2.06 µM [activator, partial curve]

Q: With CC(=O)c1ccc(S(=O)(=O)N2CCN(CC(=O)Nc3ccccc3C(=O)NC3CC3)CC2)cc1 as the molecule, how does the Potency read?
A: active: 6.51 µM

Q: For COc1ccccc1CNC(=O)C1=CCN(S(=O)(=O)c2ccc(C)cc2)CC1, which lipid storage change, negative = inhibition is on record?
A: inconclusive: 23.3%

Q: Which lipid storage change, negative = inhibition does the source give for CCNC(=S)Nc1cccc(S(=O)(=O)Nc2ccccc2OC)c1 here?
A: inconclusive: -2.43%

Q: Which Potency does the source give for COc1ccccc1-c1nn2c(C3COc4ccccc4O3)nnc2s1 (stereo not given) here?
A: inconclusive: 0.461 µM [activator, partial curve]

Q: With COc1ccccc1C(=O)N(Cc1sccc1C)C1CCS(=O)(=O)C1 (stereo not given) as the molecule, how does the lipid storage change, negative = inhibition read?
A: inconclusive: -10.8%

Q: With COc1ccc([C@@H]2[C@@H]3C(=O)N(C(C)(C)C)C(=O)[C@@H]3[C@]3(Cc4ccccc4)C(=O)N(c4cccc(Br)c4)C(=O)N23)cc1 as the molecule, how does the lipid storage change, negative = inhibition read?
A: inconclusive: -16.6%

Q: Which Potency does the source give for COc1cc(-c2cc(OC)c3c(C)oc(C)c3c(=O)c2)ccc1O here?
A: inconclusive: 10.3 µM [activator, partial curve]

Q: Which lipid storage change, negative = inhibition does the source give for Cc1ccc(C)c(NC(=O)NNS(=O)(=O)c2ccc(C)c(C)c2)c1 here?
A: inconclusive: 246%

Q: Which lipid storage change, negative = inhibition does the source give for Cc1noc(C)c1C(=O)Nc1ccc(F)cc1 here?
A: inconclusive: -20%

Q: Which lipid storage change, negative = inhibition does the source give for Cc1cc(NC(=O)COC(=O)c2ccccc2S(=O)(=O)N(C)c2ccccc2)no1 here?
A: inconclusive: 10.4%

Q: For CCCCCc1ccc(-c2cn(CCCOCc3ccccc3)nn2)cc1, which lipid storage change, negative = inhibition is on record?
A: inconclusive: -67.4%

Q: For Cc1cc(C)c(C)c(S(=O)(=O)N2CCN(C(=O)C3CSC4(C)CCC(=O)N34)CC2)c1C (stereo not given), which Potency is on record?
A: inconclusive: 16.4 µM [activator, single point]

Q: Which Potency does the source give for COc1ccccc1N1C(=O)N(C(C)=O)C2C1Nc1ccccc1N2C (stereo not given) here?
A: inconclusive: 6.51 µM [activator, single point]

Q: For COc1cc2ncnc(NCc3ccc(Cl)cc3)c2cc1OC, which lipid storage change, negative = inhibition is on record?
A: inconclusive: -15.4%

Q: For Cc1sc2cc(-c3cccc([N+](=O)[O-])c3)c(-c3cccc([N+](=O)[O-])c3)c[n+]2c1C, which Potency is on record?
A: inconclusive: 6.51 µM [rising, partial curve, poor fit]

Q: With O=C(NC1CC1)c1cc2c(s1)-c1ccccc1OC2 as the molecule, how does the lipid storage change, negative = inhibition read?
A: inconclusive: 52.4%

Q: For Cc1ccc(-n2nc(C)c(NC(=O)COC(=O)c3ccccc3NCCO)c2C)cc1, which lipid storage change, negative = inhibition is on record?
A: inconclusive

Q: For CCN(CC)S(=O)(=O)c1cccc(C(=O)N[C@H](C(=O)Nc2nc3ccc(F)cc3s2)C(C)C)c1, which Potency is on record?
A: inconclusive: 13 µM [activator, partial curve, poor fit]

Q: Which lipid storage change, negative = inhibition does the source give for Cc1cccc(NC(=O)CCC2CCN(C(=O)C3CC=CCC3)CC2)c1 (stereo not given) here?
A: inconclusive: -0.177%

Q: Which Potency does the source give for CCN(Cc1ccccc1)C(=O)CCc1nc(-c2ccc(C)cc2)no1 here?
A: inconclusive: 2.91 µM [activator, partial curve]

Source: PubChem BioAssay AID2685 (National Center for Advancing Translational Sciences (NCATS), 2010)
